Data as given in publication PMC3292467, “Comparison between ^68Ga-bombesin (^68Ga-BZH3) and the cRGD tetramer ^68Ga-RGD4 studies in an experimental nude rat model with a neuroendocrine pancreatic tumor cell line” (EJNMMI Research, 2011).
Several values for one entry are separate records, joined by “and”; a condition that tells them apart may be missing. Equal entries are not always repeated. Square brackets hold non-standard residues; d marks the D form. Peptide text beside a SMILES is read from it. * marks the point of attachment. DOTA = O=C(O)CN1CCN(CC(=O)O)CCN(CC(=O)*)CCN(CC(=O)O)CC1; 2Thi = N[C@@H](Cc1cccs1)C(=O)O; Nle = CCCC[C@H](N)C(=O)O; AEEA = NCCOCCOCC(=O)O; βAla = NCCC(=O)O

Test system: AR42J tumor
Test: Fractal dimension, non-compartmental analysis of dynamic PET time-activity data, AR42J tumor
Format: in vivo, rat
Settings: subdivision 7 × 7, maximal SUV 20, scale 0 to 2, n = 5 (BZH3), n = 4 (RGD4)

With `CCCC[C@H](NC(=O)[C@H](Cc1cccs1)NC(=O)[C@H](Cc1c[nH]cn1)NC(=O)CCNC(=O)[C@@H](NC(=O)[C@H](C)NC(=O)[C@H](Cc1c[nH]c2ccccc12)NC(=O)[C@H](CCC(N)=O)NC(=O)[C@@H](Cc1ccc(O)cc1)NC(=O)COCCOCCNC(=O)COCCOCCNC(=O)CN1CCN(CC(=O)O)CCN(CC(=O)O)CCN(CC(=O)O)CC1)C(C)C)C(N)=O` [^68Ga-BZH3, DOTA-PEG2-[D-Tyr^6 -β-Ala^11 -Thi^13 -Nle^14]BN(6-14) amide, metal not drawn] ({DOTA-AEEA-AEEA}-[dY]QWAV[βAla]H[2Thi][Nle]-NH2) the “FD (fractal dimension)” value (maximum) was 1.1495, the “FD (fractal dimension)” value (mean) was 1.1198 and the “FD (fractal dimension)” value (median, between tracers P 0.0275*) was 1.142 and 1.1425. For the same molecule, the “FD (fractal dimension)” value (minimum) was 1.0665.
